These are yes or no findings as the source states them, for the method shown. Binding seen in cells or lysates may run through a third protein. A yes stands for co-enrichment or nearness to the bait. Other partners may have been found.
T1: PETO (Cre12.g558900) (Chlamydomonas reinhardtii) (UniProt Q9LLC6)
T1 sequence: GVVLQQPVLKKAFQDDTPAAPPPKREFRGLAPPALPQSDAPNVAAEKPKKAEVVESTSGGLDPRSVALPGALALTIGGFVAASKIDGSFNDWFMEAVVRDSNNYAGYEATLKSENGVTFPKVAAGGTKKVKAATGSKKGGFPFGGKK


Columns and labels:
Assay in all cases: affinity purification with mass spectrometry
[1] = target: T1, PETO (Cre12.g558900) (Chlamydomonas reinhardtii)
[2] = target: cyclic electron flow regulator ANR1 (Cre03.g164000) (Chlamydomonas reinhardtii)
[3] = target: RRM16 (Cre03.g175800) (Chlamydomonas reinhardtii)

Molecule	binding [3]	further results
cyclic electron flow regulator ANR1 (Cre03.g164000) (Chlamydomonas reinhardtii)	–	binding [1]: binds
Cytochrome b6f subunit IV (PetD) (protein, UniProt P23230 1-160) MSVTKKPDLSDPVLKAKLAKGMGHNTYGEPAWPNDLLYMFPVVILGTFACVIGLSVLDPAAMGEPANPFATPLEILPEWYFYPVFQILRVVPNKLLGVLLMAAVPAGLITVPFIESINKFQNPYRRPIATILFLLGTLVAVWLGIGSTFPIDISLTLGLF	–	binding [2]: binds
chloroplast ribosome small subunit component rps4 (protein, UniProt P48270 1-257) MSRYLGPRLRVIRRIGKLRGFTRKKPFRRVFKGFGGFKGKVIPPGQHGLTKLLKTRPYDSSESDYLIRLKVKQRLRFNYGITERQLVNYVRKAKKIKESTGQVLLQFLEMRLDNIVFRLNMAPTIPAARQLISHGHIRVNNKKVNIPSYMCKPKDVISVAMKQRSLQLVNKNLQEYYRRMRFYKKRLEKTLPFILLKIKPLGLTSVTAAVELITKGNVRVNNKSVKTPNYICRPRDTVSLRTKQGIKKVFLKNYLKG	binds	–
chloroplast ribosome small subunit component rps2-1 (protein, UniProt O47027 1-570) MLNKKPPYLILSLIMIKTQKSKQTAVRKLIPGNVISLKITAMGANNVGINEFTFGIPVLVPNAKLGETVQAKVLKILASKKIAIAKLIKVVTKTNATETNNLAALTPGATLDVTITKLGPNSTGIADLGNNYNNVNKLIVKKSAITIGEKVTVLVTRVKNGYAFGVATVSTQRLNQVSTSLTQNSFKGTKFTVVLPKNAKRYLKHLVFKVTTATAQNLSVNGFEQTLFKKGAVGLDTRINNQNGSAGNLTTVPTNTILFVKPNLGAKLGDKVQIQIIKFASIENGTLTYNVAIAKIIKLNPLSTPQKKAFVRSSLRQMLKSGMHYGEKAIKCNARMKNYVWTRKKGTDTKVEARPLIKKGRNLINLLKTRRCLTKALAQLTKYAAKGKTFLFVGTKKAASGLVARAALFSKKAFFVNTRWLGGMLTNWKTILKSISKIRPILKEKQMIIKDILEKRQTIKARLIQKALLLRKKSKLMLKKGRLLIQMLKQNNSNSTSGKQAVRFLFTEKTNLLNTKRKEFVSKGILLLEKRQQLVVKRQELITQSQTLKSKAIQLTNTISQFIKQFNLFT	binds	–

Source: article doi:10.1101/2022.05.31.493820
